Test [1] concerns the target T1, RAD21 cohesin complex component (RAD21) (human (endogenous in H1299 and H1650)) (UniProt O60216).
T1 sequence: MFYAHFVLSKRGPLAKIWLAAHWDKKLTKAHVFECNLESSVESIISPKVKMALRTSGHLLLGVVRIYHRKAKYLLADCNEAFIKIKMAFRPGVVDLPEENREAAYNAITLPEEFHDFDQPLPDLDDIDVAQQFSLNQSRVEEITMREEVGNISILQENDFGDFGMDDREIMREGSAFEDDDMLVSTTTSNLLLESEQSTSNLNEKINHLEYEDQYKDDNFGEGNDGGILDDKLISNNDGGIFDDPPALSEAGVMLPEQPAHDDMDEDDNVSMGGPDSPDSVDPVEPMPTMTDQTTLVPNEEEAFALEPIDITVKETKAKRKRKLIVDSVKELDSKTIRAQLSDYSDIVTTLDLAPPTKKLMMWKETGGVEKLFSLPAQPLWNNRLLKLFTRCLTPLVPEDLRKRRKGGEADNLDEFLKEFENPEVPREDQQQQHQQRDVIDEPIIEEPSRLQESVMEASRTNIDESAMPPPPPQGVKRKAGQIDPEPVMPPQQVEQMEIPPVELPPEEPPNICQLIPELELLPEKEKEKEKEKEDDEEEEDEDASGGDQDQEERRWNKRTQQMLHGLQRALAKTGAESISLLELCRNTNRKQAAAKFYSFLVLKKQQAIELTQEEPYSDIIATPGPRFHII
The test is described as follows: co-IP; competitive co-IP: H1299 or H1650 cells transfected with 0.5, 1 or 2 ug NIPBL expression vector, then co-IP with anti-RAD21 antibody; interaction of RAD21 with NIPBL or EZH2 evaluated.

Protein sequences, listed by entry. Tags and fused reporters are not part of them.
UniProt Q6KC79: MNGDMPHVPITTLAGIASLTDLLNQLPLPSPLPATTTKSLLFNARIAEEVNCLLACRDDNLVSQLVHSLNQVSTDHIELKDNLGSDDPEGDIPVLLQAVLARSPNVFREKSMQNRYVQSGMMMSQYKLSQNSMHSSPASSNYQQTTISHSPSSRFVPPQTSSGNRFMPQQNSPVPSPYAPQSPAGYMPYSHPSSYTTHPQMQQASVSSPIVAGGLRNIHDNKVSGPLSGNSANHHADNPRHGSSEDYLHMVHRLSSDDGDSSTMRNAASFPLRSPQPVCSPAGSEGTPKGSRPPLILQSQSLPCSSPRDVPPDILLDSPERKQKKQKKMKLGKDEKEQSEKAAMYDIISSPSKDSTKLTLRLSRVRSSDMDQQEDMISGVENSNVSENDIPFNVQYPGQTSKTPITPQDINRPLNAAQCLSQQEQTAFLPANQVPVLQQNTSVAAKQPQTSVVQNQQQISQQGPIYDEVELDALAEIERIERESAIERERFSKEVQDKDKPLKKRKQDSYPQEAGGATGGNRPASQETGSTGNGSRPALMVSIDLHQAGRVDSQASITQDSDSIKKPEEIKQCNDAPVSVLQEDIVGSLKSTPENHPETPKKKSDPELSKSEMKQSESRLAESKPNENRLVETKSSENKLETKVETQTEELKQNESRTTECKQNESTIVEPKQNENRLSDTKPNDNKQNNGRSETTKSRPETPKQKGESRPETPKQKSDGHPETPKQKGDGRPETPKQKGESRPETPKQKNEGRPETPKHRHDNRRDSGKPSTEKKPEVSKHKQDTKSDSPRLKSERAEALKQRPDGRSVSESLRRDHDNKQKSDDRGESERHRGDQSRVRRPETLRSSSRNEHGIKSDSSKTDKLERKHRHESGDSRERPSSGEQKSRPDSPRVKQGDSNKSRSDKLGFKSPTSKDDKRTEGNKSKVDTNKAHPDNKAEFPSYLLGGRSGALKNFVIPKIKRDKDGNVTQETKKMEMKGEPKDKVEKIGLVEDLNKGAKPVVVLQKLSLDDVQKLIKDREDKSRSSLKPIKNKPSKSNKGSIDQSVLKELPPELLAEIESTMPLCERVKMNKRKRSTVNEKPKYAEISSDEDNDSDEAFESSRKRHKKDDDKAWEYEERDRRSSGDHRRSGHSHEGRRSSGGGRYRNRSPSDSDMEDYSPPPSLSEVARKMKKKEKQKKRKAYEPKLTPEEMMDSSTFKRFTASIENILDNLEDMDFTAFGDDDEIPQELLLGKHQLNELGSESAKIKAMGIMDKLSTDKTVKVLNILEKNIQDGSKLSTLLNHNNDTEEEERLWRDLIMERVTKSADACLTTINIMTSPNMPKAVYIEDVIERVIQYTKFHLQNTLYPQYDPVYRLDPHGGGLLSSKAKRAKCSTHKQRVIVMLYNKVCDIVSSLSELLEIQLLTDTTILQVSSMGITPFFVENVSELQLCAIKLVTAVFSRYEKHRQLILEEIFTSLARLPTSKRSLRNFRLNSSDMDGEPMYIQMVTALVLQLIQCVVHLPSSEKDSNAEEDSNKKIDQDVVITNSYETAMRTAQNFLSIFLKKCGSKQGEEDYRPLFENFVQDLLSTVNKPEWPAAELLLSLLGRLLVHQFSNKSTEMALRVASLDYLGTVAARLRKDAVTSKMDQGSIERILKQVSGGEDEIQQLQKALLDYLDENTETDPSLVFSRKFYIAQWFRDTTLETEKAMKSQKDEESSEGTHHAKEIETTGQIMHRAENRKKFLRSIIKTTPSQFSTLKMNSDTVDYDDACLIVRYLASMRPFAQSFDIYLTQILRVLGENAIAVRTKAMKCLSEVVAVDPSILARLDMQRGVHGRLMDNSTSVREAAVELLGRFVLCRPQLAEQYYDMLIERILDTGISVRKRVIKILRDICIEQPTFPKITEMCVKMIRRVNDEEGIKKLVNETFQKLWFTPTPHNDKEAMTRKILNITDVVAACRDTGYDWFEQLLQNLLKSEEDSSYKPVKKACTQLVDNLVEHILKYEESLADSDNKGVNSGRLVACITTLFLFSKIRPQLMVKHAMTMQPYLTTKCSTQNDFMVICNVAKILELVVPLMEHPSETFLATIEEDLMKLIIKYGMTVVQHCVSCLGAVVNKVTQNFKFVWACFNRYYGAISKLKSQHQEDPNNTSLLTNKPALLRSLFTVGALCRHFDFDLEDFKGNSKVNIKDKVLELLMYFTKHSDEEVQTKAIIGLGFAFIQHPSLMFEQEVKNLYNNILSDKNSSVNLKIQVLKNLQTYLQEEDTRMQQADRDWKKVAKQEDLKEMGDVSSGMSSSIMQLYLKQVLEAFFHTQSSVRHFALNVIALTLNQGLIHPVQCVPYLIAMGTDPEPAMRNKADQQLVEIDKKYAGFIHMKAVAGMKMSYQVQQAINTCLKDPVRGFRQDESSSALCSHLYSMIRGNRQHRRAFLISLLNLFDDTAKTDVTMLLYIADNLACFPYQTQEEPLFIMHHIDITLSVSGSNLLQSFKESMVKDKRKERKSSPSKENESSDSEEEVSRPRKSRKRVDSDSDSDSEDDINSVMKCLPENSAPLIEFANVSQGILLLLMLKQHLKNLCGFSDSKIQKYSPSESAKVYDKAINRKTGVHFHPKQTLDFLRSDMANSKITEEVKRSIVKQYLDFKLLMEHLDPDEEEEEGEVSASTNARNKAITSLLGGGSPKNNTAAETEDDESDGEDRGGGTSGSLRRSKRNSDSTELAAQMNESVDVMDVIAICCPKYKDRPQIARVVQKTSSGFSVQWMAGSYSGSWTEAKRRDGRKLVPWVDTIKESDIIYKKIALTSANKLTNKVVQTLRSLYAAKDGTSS
UniProt O15054: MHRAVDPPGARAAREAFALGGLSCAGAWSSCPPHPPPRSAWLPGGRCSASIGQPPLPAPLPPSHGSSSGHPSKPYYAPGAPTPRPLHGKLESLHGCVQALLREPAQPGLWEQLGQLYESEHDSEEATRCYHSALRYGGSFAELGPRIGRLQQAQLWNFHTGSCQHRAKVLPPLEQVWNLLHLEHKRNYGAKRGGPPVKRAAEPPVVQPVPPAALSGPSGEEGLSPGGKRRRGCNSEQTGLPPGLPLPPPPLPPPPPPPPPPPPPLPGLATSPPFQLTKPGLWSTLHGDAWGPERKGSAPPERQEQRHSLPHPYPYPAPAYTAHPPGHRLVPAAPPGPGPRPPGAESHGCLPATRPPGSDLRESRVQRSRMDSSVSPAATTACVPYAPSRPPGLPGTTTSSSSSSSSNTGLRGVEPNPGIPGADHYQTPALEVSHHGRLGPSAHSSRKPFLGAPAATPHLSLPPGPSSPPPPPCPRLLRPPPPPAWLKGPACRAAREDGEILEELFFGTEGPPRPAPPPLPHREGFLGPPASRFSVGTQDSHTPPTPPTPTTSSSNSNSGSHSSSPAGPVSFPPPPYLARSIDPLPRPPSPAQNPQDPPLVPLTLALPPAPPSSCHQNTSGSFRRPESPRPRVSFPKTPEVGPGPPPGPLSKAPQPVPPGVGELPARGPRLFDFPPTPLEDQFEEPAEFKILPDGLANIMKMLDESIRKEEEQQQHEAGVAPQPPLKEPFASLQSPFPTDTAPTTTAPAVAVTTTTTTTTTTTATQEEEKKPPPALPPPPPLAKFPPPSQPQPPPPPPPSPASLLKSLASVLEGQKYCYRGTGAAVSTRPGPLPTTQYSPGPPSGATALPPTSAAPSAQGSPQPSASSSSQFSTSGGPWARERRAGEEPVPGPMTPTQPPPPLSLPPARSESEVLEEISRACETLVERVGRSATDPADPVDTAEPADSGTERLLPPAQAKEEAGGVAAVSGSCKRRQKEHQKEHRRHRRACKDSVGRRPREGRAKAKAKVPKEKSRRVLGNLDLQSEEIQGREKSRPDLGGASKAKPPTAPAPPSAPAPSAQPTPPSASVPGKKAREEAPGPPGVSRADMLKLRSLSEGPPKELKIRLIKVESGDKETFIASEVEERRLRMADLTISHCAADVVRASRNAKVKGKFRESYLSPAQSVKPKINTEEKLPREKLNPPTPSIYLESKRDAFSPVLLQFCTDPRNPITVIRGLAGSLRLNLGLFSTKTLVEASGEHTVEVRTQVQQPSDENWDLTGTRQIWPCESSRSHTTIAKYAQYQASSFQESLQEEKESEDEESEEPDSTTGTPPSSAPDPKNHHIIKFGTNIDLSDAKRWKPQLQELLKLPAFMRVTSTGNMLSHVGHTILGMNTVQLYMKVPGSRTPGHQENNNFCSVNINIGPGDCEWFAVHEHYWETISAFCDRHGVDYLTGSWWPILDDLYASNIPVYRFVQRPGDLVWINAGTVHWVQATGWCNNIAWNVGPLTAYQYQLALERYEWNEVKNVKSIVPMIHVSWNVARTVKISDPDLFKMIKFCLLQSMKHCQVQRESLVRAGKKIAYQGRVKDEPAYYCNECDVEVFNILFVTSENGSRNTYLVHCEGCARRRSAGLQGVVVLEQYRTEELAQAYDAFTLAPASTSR

The target of test [2] is Nipped-B-Like Protein (NIPBL) (human (endogenous in H1299 and H1650)) (UniProt Q6KC79). The test is described as follows: co-IP; lysate of H1299 and H1650 cells in nondenaturing lysis buffer, about 300 ug protein, 1 ug anti-NIPBL antibody and protein A/G magnetic beads overnight at 4 °C; Western blot for KDM6B; rabbit IgG as negative control. Background: In western blotting, separated proteins are transferred to a membrane and probed.

The text below walks through data of publication PMC10879132.

No constants are given. Whether binding was seen depends on the method and setting. Binding seen in cells or lysates may run through a third protein. Some binding calls cover weakened binding; strength is not graded here.

With “NIPBL from the NIPBL expression vector (from UniProt Q6KC79 1-2804)”, the binding result in test [1] is “binds”. Take “lysine demethylase 6B (KDM6B) (from UniProt O15054 1-1643)”: in test [2], the binding result is on record as “binds”.
